Measured values as given in US20020019378A1, “COMPOUNDS” (priority 1997, published 2002).
Some entries share one result that the patent states for a list of compounds. At least one structure is not confirmed: it was looked up by name or label, or the drawing left a doubt.

Test: Stability in human plasma test method
Format: in vitro ADME
Conditions: 37° C.
Description: The stability of various of the compounds of the Examples in human plasma was tested using the following ‘stability in human plasma’ test method: 500 μl aliquots of human plasma in screw capped polypropylene tubes were preincubated at 37° C. in a waterbath for 5 minutes. The plasma samples were then spiked with 5 μl of test compound (nominally 5 mg/ml in DMSO). Aliquots (100 μl ) were removed immediately and after 5 minutes and mixed with an equal volume of acetonitrile. The samples were centrifuged and the supernatants were transferred to autosampler vials for HPLC and half-life analysis.
In the HPLC procedure, aliquots (20 μl) of all the supernatants were injected onto a Zorbax Rx C8 column (250×4.6mm; Hichrom). The column was maintained at 40° C. and eluted at a flow rate of 1.0 mL/min with a mobile phase of acetonitrile: 50 mM ammonium formate (65:35) adjusted to pH 4.2 with formic acid. Detection was by UV absorbance at 240 nm, and chromatographic peak areas for both parent and metabolite were measured
To determine the half-life, for each compound peak areas were plotted against time on a log-linear scale, and the half lives determined by extrapolation or interpolation of a straight line joining two points.

Row | SMILES | Half-life in human plasma
1 | Cc1oc(=O)oc1CSC(=O)C12OC(C)(C)OC1CC1C3CC(F)C4=CC(=O)C=CC4(C)C3(F)C(O)CC12C (stereo not drawn) [Example 11, 6α,9α-Difluoro-11β-hydroxy-16α,17α-isopropylidenedioxy-3-oxo-androsta-1,4-diene-17β-carbothioic acid S-(5-methyl-2-oxo-1,3-dioxol4-ylmethyl) ester] | less than 10 min
2 | CCC(=O)OC1(C(=O)OCc2oc(=O)oc2C)C(C)CC2C3CC(F)C4=CC(=O)C=CC4(C)C3(F)C(O)CC21C (stereo not drawn) [Example 12, 6α,9α-Difluoro-11β-hydroxy-16α-methyl-3-oxo-17α-propionyloxy-androsta-1,4-diene-17β-carboxylic acid O-(5-methyl-2-oxo-1,3-dioxol-4-ylmethyl) ester] | less than 10 min
